Test results taken from the supplement of paper PMC11732987, “Enantioselective OTUD7B fragment discovery through chemoproteomics screening and high-throughput optimisation” (Communications Chemistry, 2025).
Some of the results follow. The data scatter; read single values as rough.

Sequences of proteins named here, by UniProt entry; tags and fusion partners are left off. A change or cut given only in a name is not applied to a line headed by its entry.
UniProt Q9UKN8: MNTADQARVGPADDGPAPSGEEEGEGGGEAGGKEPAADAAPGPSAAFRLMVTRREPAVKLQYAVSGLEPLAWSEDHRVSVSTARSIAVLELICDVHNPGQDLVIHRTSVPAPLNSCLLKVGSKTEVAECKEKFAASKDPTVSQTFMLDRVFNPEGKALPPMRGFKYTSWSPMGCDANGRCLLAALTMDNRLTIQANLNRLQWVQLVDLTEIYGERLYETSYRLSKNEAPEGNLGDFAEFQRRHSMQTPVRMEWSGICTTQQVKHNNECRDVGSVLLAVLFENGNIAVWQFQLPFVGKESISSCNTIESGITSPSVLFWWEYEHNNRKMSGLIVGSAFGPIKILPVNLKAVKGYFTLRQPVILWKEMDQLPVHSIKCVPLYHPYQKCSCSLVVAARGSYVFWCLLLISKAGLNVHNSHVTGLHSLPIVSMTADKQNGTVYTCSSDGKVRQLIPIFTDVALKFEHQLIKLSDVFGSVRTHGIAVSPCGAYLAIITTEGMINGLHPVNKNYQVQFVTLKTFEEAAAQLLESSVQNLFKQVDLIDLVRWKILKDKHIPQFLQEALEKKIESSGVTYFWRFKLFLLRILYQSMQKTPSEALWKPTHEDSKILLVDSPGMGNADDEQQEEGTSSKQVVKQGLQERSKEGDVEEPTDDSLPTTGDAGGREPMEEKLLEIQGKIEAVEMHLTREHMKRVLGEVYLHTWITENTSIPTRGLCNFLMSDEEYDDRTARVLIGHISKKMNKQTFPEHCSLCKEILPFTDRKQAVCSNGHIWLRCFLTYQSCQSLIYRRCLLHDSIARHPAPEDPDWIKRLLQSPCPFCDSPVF
UniProt Q8N4P3, whole entry, looked up: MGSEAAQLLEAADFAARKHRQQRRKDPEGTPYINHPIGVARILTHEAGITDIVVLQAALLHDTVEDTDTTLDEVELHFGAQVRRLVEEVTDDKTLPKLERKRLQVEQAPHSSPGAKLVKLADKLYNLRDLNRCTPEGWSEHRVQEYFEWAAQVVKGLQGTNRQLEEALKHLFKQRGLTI
UniProt Q9NRZ9: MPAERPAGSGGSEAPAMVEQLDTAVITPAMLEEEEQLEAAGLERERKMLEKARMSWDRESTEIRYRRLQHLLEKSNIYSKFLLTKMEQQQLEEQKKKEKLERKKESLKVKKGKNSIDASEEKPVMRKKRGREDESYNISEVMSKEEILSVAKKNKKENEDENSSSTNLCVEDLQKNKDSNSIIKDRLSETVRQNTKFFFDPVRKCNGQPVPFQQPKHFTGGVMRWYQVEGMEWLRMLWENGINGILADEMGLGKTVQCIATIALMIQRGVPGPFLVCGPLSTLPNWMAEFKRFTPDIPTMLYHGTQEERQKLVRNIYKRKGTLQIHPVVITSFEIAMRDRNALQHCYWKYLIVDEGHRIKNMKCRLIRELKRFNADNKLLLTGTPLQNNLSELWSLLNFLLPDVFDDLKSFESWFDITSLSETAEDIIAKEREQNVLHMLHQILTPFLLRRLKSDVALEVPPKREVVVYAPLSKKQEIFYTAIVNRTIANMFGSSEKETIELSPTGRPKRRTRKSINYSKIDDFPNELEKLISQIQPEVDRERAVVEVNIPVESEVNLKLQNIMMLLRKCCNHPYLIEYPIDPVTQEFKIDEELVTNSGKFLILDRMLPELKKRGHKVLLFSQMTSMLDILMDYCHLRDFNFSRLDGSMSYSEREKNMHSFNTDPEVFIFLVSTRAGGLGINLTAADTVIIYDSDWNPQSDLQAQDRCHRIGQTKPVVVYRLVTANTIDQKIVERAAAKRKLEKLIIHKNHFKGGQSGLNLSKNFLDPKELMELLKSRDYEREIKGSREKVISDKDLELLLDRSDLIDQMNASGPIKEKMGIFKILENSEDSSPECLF
UniProt P29083: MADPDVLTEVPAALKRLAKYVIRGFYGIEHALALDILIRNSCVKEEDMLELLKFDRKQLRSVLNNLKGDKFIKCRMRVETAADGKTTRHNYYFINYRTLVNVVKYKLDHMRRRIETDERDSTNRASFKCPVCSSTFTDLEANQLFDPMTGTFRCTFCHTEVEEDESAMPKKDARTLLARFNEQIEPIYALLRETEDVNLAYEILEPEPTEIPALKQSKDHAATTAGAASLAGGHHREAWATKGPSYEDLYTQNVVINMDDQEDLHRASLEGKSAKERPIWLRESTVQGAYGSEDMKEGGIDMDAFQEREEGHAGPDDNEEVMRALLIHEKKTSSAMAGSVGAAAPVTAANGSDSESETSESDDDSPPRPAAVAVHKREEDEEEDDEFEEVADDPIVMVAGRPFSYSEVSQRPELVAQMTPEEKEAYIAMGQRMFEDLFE
UniProt O94927: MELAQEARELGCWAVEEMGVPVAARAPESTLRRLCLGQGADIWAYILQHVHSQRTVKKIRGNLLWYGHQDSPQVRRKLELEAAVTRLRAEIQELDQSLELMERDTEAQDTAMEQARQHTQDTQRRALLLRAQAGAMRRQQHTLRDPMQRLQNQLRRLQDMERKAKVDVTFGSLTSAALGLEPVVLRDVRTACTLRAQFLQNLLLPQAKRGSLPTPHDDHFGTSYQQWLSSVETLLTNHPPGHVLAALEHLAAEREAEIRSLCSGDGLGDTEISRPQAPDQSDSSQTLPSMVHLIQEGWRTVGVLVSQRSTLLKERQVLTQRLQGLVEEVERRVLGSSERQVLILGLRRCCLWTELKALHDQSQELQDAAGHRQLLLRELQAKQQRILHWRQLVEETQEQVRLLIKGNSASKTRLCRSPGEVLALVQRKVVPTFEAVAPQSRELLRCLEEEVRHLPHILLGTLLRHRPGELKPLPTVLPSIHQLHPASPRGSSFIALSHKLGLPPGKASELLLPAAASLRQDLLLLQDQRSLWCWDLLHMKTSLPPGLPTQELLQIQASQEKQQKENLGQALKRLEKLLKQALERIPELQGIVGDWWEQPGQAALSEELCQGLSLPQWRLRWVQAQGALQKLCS
UniProt P22626: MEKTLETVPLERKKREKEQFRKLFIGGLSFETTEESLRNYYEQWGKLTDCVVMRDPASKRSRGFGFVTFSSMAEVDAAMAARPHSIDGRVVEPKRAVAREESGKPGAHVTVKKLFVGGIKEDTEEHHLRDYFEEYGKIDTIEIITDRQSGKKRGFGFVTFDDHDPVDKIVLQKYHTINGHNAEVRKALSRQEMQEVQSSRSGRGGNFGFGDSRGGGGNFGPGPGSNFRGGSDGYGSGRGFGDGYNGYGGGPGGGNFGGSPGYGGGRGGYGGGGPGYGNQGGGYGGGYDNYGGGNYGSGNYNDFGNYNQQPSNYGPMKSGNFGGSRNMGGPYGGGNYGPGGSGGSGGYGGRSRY
UniProt Q96CS2: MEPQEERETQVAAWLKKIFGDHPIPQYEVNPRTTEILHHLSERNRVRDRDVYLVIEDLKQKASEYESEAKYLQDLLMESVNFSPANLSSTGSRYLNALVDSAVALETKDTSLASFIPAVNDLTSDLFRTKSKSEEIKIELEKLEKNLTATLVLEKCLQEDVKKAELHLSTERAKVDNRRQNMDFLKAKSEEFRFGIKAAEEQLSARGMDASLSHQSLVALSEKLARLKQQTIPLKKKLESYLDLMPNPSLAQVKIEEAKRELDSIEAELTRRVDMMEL
UniProt P19367: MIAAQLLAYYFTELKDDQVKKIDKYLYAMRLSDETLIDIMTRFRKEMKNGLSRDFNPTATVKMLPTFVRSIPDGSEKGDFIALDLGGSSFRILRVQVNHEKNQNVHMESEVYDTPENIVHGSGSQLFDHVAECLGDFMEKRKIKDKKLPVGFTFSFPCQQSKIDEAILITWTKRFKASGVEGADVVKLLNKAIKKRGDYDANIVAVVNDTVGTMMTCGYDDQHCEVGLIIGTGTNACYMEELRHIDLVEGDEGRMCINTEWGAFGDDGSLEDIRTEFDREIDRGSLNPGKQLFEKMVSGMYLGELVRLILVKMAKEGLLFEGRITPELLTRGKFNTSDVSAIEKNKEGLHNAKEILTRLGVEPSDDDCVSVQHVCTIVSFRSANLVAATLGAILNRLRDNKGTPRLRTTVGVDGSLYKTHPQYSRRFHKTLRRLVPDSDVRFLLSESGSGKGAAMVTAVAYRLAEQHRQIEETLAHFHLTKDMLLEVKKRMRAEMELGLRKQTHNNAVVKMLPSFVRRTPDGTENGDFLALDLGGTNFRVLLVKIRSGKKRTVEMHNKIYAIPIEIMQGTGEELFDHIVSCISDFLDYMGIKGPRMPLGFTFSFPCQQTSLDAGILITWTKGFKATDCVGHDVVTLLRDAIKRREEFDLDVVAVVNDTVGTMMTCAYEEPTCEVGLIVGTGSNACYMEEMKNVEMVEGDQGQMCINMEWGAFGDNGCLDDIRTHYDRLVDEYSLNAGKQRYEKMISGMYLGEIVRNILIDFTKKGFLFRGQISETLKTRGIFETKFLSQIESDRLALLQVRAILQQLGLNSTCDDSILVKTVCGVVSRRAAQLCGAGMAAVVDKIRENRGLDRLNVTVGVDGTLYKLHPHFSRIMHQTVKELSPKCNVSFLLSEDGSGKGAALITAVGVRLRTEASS
UniProt P08236: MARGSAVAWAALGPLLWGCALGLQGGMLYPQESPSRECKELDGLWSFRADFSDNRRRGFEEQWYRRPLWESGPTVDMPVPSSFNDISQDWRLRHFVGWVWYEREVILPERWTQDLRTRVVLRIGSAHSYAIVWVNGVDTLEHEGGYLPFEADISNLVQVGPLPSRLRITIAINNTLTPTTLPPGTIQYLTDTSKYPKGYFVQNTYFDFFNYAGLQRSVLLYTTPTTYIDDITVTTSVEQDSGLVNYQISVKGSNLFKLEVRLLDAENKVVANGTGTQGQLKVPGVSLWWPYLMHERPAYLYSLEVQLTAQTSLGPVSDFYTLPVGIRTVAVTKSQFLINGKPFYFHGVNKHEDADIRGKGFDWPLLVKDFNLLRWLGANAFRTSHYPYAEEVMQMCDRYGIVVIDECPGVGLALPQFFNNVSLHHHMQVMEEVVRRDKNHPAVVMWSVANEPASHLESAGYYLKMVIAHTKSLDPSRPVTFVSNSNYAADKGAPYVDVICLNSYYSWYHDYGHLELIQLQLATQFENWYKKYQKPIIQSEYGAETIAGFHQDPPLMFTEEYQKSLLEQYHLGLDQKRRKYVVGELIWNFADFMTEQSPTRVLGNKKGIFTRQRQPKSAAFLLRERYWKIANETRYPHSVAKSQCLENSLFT
UniProt P28161: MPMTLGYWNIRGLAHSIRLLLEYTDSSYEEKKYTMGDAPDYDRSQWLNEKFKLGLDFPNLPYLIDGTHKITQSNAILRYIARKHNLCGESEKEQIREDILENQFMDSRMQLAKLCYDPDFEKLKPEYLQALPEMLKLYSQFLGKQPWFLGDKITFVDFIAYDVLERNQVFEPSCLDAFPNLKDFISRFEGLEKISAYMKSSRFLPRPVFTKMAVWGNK
UniProt Q9UJC3: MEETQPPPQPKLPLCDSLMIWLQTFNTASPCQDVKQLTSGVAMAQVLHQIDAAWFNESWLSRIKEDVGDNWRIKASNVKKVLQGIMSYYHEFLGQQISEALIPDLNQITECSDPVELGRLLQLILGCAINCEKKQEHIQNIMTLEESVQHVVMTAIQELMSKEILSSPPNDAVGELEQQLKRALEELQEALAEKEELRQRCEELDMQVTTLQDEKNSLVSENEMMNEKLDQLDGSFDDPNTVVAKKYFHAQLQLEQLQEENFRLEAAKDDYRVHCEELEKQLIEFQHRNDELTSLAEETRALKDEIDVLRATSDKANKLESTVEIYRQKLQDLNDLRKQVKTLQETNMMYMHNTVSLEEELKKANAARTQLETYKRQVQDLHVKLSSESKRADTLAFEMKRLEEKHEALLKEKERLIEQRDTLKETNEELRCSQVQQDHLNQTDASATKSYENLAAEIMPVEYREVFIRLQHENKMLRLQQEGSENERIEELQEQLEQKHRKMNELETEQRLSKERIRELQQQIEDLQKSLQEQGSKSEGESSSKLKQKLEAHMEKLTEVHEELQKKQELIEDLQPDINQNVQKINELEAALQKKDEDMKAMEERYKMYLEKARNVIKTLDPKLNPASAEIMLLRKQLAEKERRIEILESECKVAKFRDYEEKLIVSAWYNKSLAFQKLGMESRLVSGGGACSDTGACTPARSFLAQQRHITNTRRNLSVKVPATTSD
UniProt P21266: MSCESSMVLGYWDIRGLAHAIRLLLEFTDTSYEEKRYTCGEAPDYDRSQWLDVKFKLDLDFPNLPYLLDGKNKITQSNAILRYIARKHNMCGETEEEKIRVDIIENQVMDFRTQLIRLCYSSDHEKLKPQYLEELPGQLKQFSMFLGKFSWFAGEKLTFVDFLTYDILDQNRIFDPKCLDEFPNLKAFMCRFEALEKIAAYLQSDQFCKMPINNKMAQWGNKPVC
UniProt P13984: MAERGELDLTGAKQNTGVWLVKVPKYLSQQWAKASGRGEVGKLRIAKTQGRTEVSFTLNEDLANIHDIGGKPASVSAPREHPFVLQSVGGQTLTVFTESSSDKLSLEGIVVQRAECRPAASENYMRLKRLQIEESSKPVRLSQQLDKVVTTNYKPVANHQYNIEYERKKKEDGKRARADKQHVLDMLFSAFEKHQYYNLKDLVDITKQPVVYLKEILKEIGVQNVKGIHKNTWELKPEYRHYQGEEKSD

Compound: ClCC(=O)N[C@H]1CCCc2ccccc12
Test: log2 mean competition ratio of IA-DTB cysteine labelling (DMSO/compound) (log2 ratio); higher = stronger cysteine engagement by compound
Settings: 50 µM; treatment time: 4 h; cell line lysate: HEK293T
Method: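 IA-DTB competitive cysteine chemoproteomics in HEK293T RIPA lysate. Lysates were treated with compound 29 or 30 at 50 or 200 µM for 4 h, then IA-DTB (500 µM, 1 h), trypsin-digested, NeutrAvidin-enriched and analysed by diaPASEF. Competition ratio = intensity DMSO / intensity compound (n=4 treated, n=64 DMSO); binding: mean log2 CR ≥ 1 and p ≤ 0.05 plus QC filters. Target is the cysteine site.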

Target	log2 mean competition ratio
HK2 C813 (UniProt P52789)	0.161
GTF3C4 C174 (UniProt Q9UKN8)	0.827
HIP1R C650 (UniProt O75146)	-0.258
HDDC3 C133 (UniProt Q8N4P3)	-0.33
HELLS C836 (UniProt Q9NRZ9)	0.398
HNRNPD C126	-0.559
HNRNPUL2 C308 (UniProt Q1KMD3)	0.0429
HDAC4 C194 (UniProt P56524)	0.152
GTF2E1 C42 (UniProt P29083)	-0.0873
HECTD4 C1084	-0.295
HECTD1 C369 (UniProt Q9ULT8)	0.00721
HJURP C327 (UniProt Q8NCD3)	0.162
HERC1 C1941 (UniProt Q15751)	0.0718
HABP4 C236 (UniProt Q5JVS0)	-0.0783
HAUS5 C446 (UniProt O94927)	0.0868
HNRNPA2B1 C50 (UniProt P22626)	-0.454
HEATR5B C625 (UniProt Q9P2D3)	-0.0877
HAUS1 C156 (UniProt Q96CS2)	-0.0106
H3-7 C111	0.265
HK1 C886 (UniProt P19367)	-0.00334
HEXB C360 (UniProt P07686)	0.893
GUSB C644 (UniProt P08236)	0.358
HECTD1 C123 (UniProt Q9ULT8)	-0.109
HGS C75 (UniProt O14964)	-0.0635
GSTM2 C115 (UniProt P28161)	-0.327
HOOK1 C432 (UniProt Q9UJC3)	0.0202
GSTM3 C119 (UniProt P21266)	-0.0953
GTF2F2 C116 (UniProt P13984)	-0.0293

Two entries from above, in markdown:

| Target | log2 mean competition ratio |
| --- | --- |
| GTF3C4 C174 (UniProt Q9UKN8) | 0.827 |
| HIP1R C650 (UniProt O75146) | -0.258 |
